Laboratory results from publication PMC8791477, “Evaluation of SARS-CoV-2 entry, inflammation and new therapeutics in human lung tissue cells” (PLoS Pathogens, 2022).

Experiments:
in vitro [1] = conditions: African green monkey, CC50 Vero E6
in vitro [2] = conditions: human, CC50 HLT

## Cc1cc(NS(=O)(=O)c2ccc(N)cc2)no1 [Sulfamethoxazole]
In vitro [1]
  CC50: > 100 µM
In vitro [2]
  CC50: > 100 µM
